Data on 57 compounds can be found in PubChem BioAssay AID2685 (National Center for Advancing Translational Sciences (NCATS), 2010).

The assay in a line: qHTS Assay for Lipid Storage Modulators in Drosophila S3 Cells.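 As to cell number change: cells counted by Cell Tracker Red CMTPX staining in the red channel.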 The conditions noted are these: BODIPY lipid droplet fluorescence, 18-24 h; for cell number change: measured here: cell count max response, cells fed with added oleic acid. The method in brief: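 Laser-scanning cytometry quantifies lipid droplet accumulation (500–530 nm total intensity; droplet/cell object ratio) in oleic acid-fed (400 uM added) Drosophila S3 cells treated with a concentration series. 20 uM Triacsin C defined 100% inhibition.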

[1] abbreviates: measured here: lipid fluorescence (Fed channel) AC50, cells fed with added oleic acid.
Where [2] appears, read: measured here: cell number channel AC50, cells fed with added oleic acid.

This is one part of the list. These are further read-outs of the screen, such as a control signal, another cell line or another target. No call is given for them. The list favours compounds with an active or inconclusive main result. Words in brackets tell the shape of the fitted curve; partial curves, single points and poor fits give uncertain potencies.

`O=C(NCC1CCCO1)c1cc(-c2ccccc2)nc2ccccc12` (stereo not drawn): the cell number change came to 1.64%. Besides, under setting [1], the AC50 (as a rule, the concentration giving half of the maximal activity seen) was 2060 nM [rising, partial curve].
As for `CN(C)CCNC(=O)CCCNC(=O)Cn1cnc2sc3c(c2c1=O)CCCC3`, the cell number change is -22.6%. In addition, under setting [1], the AC50 is 651 nM [falling, full curve].
For `Cn1c(=O)c2c(nc(CO)n2C)n(C)c1=O`, the cell number change is -28.4%. Besides, the AC50 under setting [1] is 1160 nM [falling, full curve, poor fit].
Turning to `Clc1ccc(Cc2noc(CN3CCN(c4ccccc4)CC3)n2)c(Cl)c1`, the cell number change was determined as 3.79%. Besides, the AC50 under setting [1] is 146 nM [falling, single point].
As to `CC(=O)c1ccccc1C(=O)N1CCC(n2nccc2NC(=O)C2CC2)CC1`, the cell number change was -0.578%. Under setting [1], the AC50 is 146 nM [rising, full curve, poor fit].
Regarding `COc1ccc(CN(C)C(=O)C(Cc2ccccc2)NC(=O)c2ccccc2)cc1F` (stereo not drawn), the AC50 was 2910 nM [rising, single point] under setting [2] and 820 nM [rising, partial curve] under setting [1].
Take `Cc1ccccc1NC(=O)CSc1nnc(NC(=O)c2ccco2)s1`: the cell number change was found to be 8.37%. Under setting [1], the AC50 was 2060 nM [rising, single point].
Turning to `C/C(C=O)=C/c1ccccc1`, the cell number change is -19.5%. Besides, the AC50 under setting [2] was 820 nM [falling, single point]. Besides, the AC50 under setting [1] is 731 nM [falling, partial curve, poor fit].
In the case of `CN(C)c1cccc(/C=C(\C#N)c2ccccc2)c1`, the cell number change was found to be 21%. For the same compound, the AC50 under setting [1] is 580 nM [rising, partial curve].
As to `COC(=O)Cn1ccc(N(C)C)c(C#N)c1=O`, the AC50 under setting [1] is 580 nM [rising, single point].
As for `COc1cc(NS(=O)(=O)c2ccc(C)cc2C)cc(OC)c1OC`, the cell number change was 5.94%. The AC50 under setting [1] is 1640 nM [falling, partial curve].
For the compound `CN1/C(=c2/s/c(=C3/C(=O)N(c4ccccc4)NC3=Nc3ccccc3)n(C)c2=O)C(C)(C)c2ccccc21`, the cell number change is -148%. Besides, the AC50 under setting [2] is 20600 nM [falling, partial curve].
Turning to `COc1ccccc1CN(Cc1cc2cc(C)cc(C)c2[nH]c1=O)Cc1nnnn1CC1CCCO1` (stereo not drawn), the cell number change was 33.7%.
As for `CCOC(=O)C1CCN(C(=O)CN(c2ccc(OC)cc2)S(=O)(=O)c2c(C)noc2C)CC1`, the cell number change is 31.5%. Also, the concentration at half-maximal activity (AC50) under setting [2] was 6510 nM [rising, single point]. In addition, under setting [1], the AC50 is 6510 nM [rising, single point].
As for `CCOC(=O)CSc1nc2cccnc2n1-c1ccc(F)cc1`, the AC50 under setting [1] is 6510 nM [rising, single point].
In the case of `COc1ccc(CNC(=O)COC(=O)c2cnccn2)cc1`, the cell number change was -42.5%. Besides, under setting [2], the AC50 is 517 nM [falling, full curve].
`O=C(CC(Nc1ccc(F)cc1)c1ccccc1)c1ccccc1` (stereo not drawn): the cell number change was -18.4%. Further, the AC50 under setting [1] is 29100 nM [falling, single point].
Turning to `CCOc1cc(N2CCOCC2)c(OCC)cc1NC(=O)c1ccc2ncsc2c1`, the cell number change was -49.7%. The concentration at half-maximal activity (AC50) under setting [2] is 25900 nM [falling, single point]. Besides, the AC50 under setting [1] is 29100 nM [falling, single point].
As to `O=C(NCCN1CCOCC1)c1cccnc1SCc1ccccc1Cl`, the cell number change amounted to 14.7%. Moreover, under setting [1], the AC50 is 116 nM [rising, full curve, poor fit].
Take `CCC(C)NS(=O)(=O)c1ccc(NC(=O)Cc2ccc(OC)cc2)cc1` (stereo not drawn): the cell number change was -28.1%. Besides, the AC50 under setting [1] is 23100 nM [falling, partial curve, poor fit].
Take `Cc1ccc(NS(=O)(=O)c2ccc3c(c2)NC(=O)C(C)C(=O)N3)c(Br)c1` (stereo not drawn): the cell number change is 1.15%. For the same compound, under setting [1], the concentration at half-maximal activity (AC50) is 6510 nM [rising, single point].
As for `c1ccc(CC(Nc2ccccn2)c2ccccc2)cc1` (stereo not drawn), the cell number change stood at 18%.
Turning to `COc1ccc(-c2nc3cccc(C)n3c2NCc2ccco2)cc1OC`, the AC50 is 6510 nM [rising, single point] under setting [2] and 6510 nM [rising, single point] under setting [1].
On to `O=C(CSc1cccc[n+]1[O-])Nc1ccc2c(c1)OCO2`, for which the cell number change came to 8.82%. Further, the AC50 under setting [1] is 6.51 nM [rising, full curve].
As to `O=S(=O)(Nc1ncccn1)c1ccc(-n2cnnn2)cc1`, the cell number change is -0.937%. Also, the AC50 under setting [2] is 1160 nM [falling, single point].
As for `Cc1ccc(OCCCC(=O)Nc2cc(Cl)ccc2-n2cncn2)cc1`, the AC50 is 206 nM [rising, partial curve] under setting [2] and 651 nM [rising, partial curve, poor fit] under setting [1].
Consider `Cc1ccc(C(=O)c2c3ccccc3[n+]([O-])n2[C@@H](C)C(N)=O)cc1`, for which the cell number change turned out to be 26.7%. Also, the AC50 under setting [2] was 32.6 nM [rising, full curve, poor fit]. For the same compound, the AC50 under setting [1] is 2310 nM [rising, partial curve, poor fit].
For the compound `Cc1ccc2nc(N(CCN(C)C)C(=O)c3ccc4ccccc4c3)sc2c1`, the AC50 under setting [1] was 6510 nM [rising, single point].
As to `CC(=O)N(C)c1ccc(NS(=O)(=O)Cc2ccccc2)cc1`, the cell number change turned out to be 35.5%. For the same compound, the AC50 under setting [2] was 32600 nM [rising, single point].
As for `CCCCc1ccc(NC(=O)CSC2=C(C#N)C(c3ccco3)C3=C(CCCC3=O)N2)cc1` (stereo not drawn), the cell number change is -27.6%. Further, the AC50 under setting [1] was 2310 nM [falling, full curve].
On to `Nc1nc(O)c(CC(=O)O)s1`, for which, under setting [1], the AC50 was 29.1 nM [rising, full curve, poor fit].
For the compound `O=C(Cc1ccccc1F)c1ccc(O)cc1O`, the cell number change was -1.31%. For the same compound, the AC50 under setting [1] is 146 nM [falling, single point].
In the case of `Cc1ccnc(NC(=O)c2ccc(NC(=O)c3ccco3)cc2)c1`, the cell number change was -15.4%. Further, the AC50 under setting [1] was 23100 nM [falling, single point].
As for `Cc1ccn2cc(-c3cccc([N+](=O)[O-])c3)nc2c1`, the cell number change worked out at 15.1%.
On to `COc1cc(/C=N/NC(=O)Nc2ccccc2)ccc1OC(C)=O`, for which the cell number change was 19.6%. Besides, the concentration at half-maximal activity (AC50) under setting [1] is 29100 nM [falling, single point].
For `CCCCOc1ccc(-c2nnn(CC(=O)Nc3ncc(CC(=O)OCC)s3)n2)cc1`, the cell number change came to 129%. For the same compound, the AC50 under setting [2] is 29100 nM [rising, single point].
On to `CCN1CCN(C(c2cc3cc4c(cc3[nH]c2=O)OCO4)c2nnnn2C(C)(C)CC)CC1` (stereo not drawn), for which the cell number change is 30.8%. In addition, under setting [2], the AC50 is 7310 nM [rising, partial curve, poor fit]. For the same compound, the AC50 under setting [1] was 2590 nM [rising, single point].
Turning to `CN(CCO)c1nc(NCc2ccccc2)c2cnn(C)c2n1`, the cell number change amounted to 5.5%. In addition, under setting [1], the AC50 was 4.61 nM [rising, full curve, poor fit].
`Cc1cc(C)c(C)c(S(=O)(=O)N2CCC(C(=O)Nc3ccncc3)CC2)c1C`: the cell number change is -9.06%. The AC50 under setting [1] is 820 nM [falling, full curve].
Regarding `O=C(Nc1ccc(F)cc1)N1CCN2C(=O)c3ccccc3C12c1ccccc1` (stereo not drawn), the cell number change was found to be 83.1%. The AC50 under setting [2] was 13000 nM [rising, partial curve]. Besides, the concentration at half-maximal activity (AC50) under setting [1] was 1300 nM [rising, partial curve].
As for `COC(=O)c1cc2nc(-c3ccc(OC)c(OC)c3)cc(C(F)(F)F)n2n1`, the cell number change was -29.5%. Further, the AC50 under setting [2] is 5.17 nM [falling, full curve, poor fit].
On to `O=C(O)c1nn2cc(CCO)cnc2c1Cl`, for which the cell number change is -37.6%. The AC50 under setting [2] is 29100 nM [falling, single point]. The AC50 under setting [1] is 29100 nM [falling, single point].
On to `Cc1ccc(-c2nc(CS(=O)CC(=O)NC3CCCC3)c(C)o2)cc1` (stereo not drawn), for which the cell number change is -34.1%. In addition, the AC50 under setting [2] is 18400 nM [falling, single point]. For the same compound, under setting [1], the half-maximal activity concentration (AC50) was 18400 nM [falling, single point].
Turning to `CC(=O)c1c(C)n(-c2ccc(Br)cc2)c2ccc(O)cc12`, the cell number change was -8.47%.
`O=C(COC(=O)CNC(=O)c1sc2ccccc2c1Cl)Nc1c(Cl)cc(Cl)cc1Cl`: the AC50 was 6510 nM [rising, partial curve, poor fit] under setting [2] and 5800 nM [rising, partial curve, poor fit] under setting [1].
For the compound `COc1ccc(-c2cc(-c3ccccc3O)[nH]n2)cc1`, the cell number change was -42.3%. Besides, the AC50 under setting [2] is 14600 nM [falling, partial curve]. For the same compound, under setting [1], the AC50 was 13000 nM [falling, partial curve].
For the compound `COc1cccc(OCCNCc2ccccc2)c1`, the cell number change stood at 11.4%. Under setting [1], the half-maximal activity concentration (AC50) was 29100 nM [rising, single point].
`O=C(/C=C/c1ccccc1)Nn1cnnc1`: the cell number change was -2.12%. The AC50 under setting [1] was 23100 nM [falling, partial curve].
As to `COc1ccc(C(=O)Nc2scc(-c3ccc(Cl)cc3Cl)c2C(N)=O)cc1`, the cell number change worked out at 38%. Moreover, the AC50 under setting [2] was 14600 nM [rising, single point].
With `O=C(Cn1nnc(-c2ccc(Cl)cc2)n1)NCC1CCCCC1`, the cell number change is -15%. In addition, the AC50 under setting [2] is 2310 nM [falling, single point].
Take `COc1ccc(-c2cc(=O)[nH][nH]2)cc1`: the cell number change stood at 41.7%. Further, under setting [2], the AC50 was 92 nM [rising, full curve, poor fit]. Moreover, the AC50 under setting [1] is 29100 nM [rising, single point].
Take `CC1C(=O)C(C)(C)C(=O)OC1c1ccc([N+](=O)[O-])cc1` (stereo not drawn): the cell number change worked out at 22.5%. Besides, the AC50 under setting [2] was 731 nM [rising, full curve, poor fit].
`CCN(CC)CCNC(=O)c1cc(Nc2ccc(OC)c(OC)c2)nc2ccccc12`: the cell number change stood at 23.6%. Further, under setting [1], the AC50 is 29100 nM [falling, single point].
`CC(C)(C)c1nnc(NC(=O)C2CC(=O)N(CCc3ccc(F)cc3)C2)s1` (stereo not drawn): the cell number change worked out at 18.1%. Besides, the half-maximal activity concentration (AC50) under setting [1] was 29100 nM [rising, single point].
Regarding `Cc1ccc(N2C(=O)C(Cl)=C(Nc3c(C)n(C)n(-c4ccccc4)c3=O)C2=O)cc1`, the cell number change was found to be 35.2%. The AC50 under setting [2] was 13000 nM [rising, single point]. Moreover, under setting [1], the AC50 is 20600 nM [rising, partial curve].
On to `CC(OC(=O)CN1C(=O)C2CCCCC2C1=O)C(=O)Nc1ncc(Cl)cc1Cl` (stereo not drawn), for which the cell number change is -18.1%. Under setting [2], the concentration at half-maximal activity (AC50) is 820 nM [rising, full curve, poor fit]. Also, the AC50 under setting [1] is 5.17 nM [rising, full curve, poor fit].
`COc1ccc(F)cc1CN1CCN(C(=O)CCC(=O)Nc2nnc(C(C)C)s2)CC1`: the cell number change was -2.92%. Under setting [1], the half-maximal activity concentration (AC50) is 92 nM [falling, full curve, poor fit].
